In PubChem BioAssay:
Some of the results follow. Entries with a potency or affinity are not part of this list. Where no call is shown, the source marks the result inconclusive.

Key:
[1] = Drosophila SCA1 whole organism dose response for polyglutamine toxicity reduction (AID 1595); settings: Drosophila SCA1 polyglutamine model, at 1 µM, stronger effect = higher value
PubChem AID 1597 = settings: Drosophila SCA1 polyglutamine model, at 1 µM, stronger effect = higher value

Row | SMILES | suppression of toxicity [1] | suppression of toxicity (PubChem AID 1597)
1 | O=C1c2c(O)ccc(O)c2C(=O)c2c(NCCNCCO)ccc(NCCNCCO)c21 | 0 | 1.43
2 | NC(N)=NC(=O)c1nc(Cl)c(N)nc1N | 1.43 | 7.14
3 | O=C(O)c1ccccc1C(=O)Nc1ccc(S(=O)(=O)Nc2nccs2)cc1 | 0 | 0
4 | Oc1cccc(O)c1 | 14.3 | 22.9
5 | COc1ccc(C[C@H](N)C(=O)N[C@@H]2[C@@H](CO)OC(n3cnc4c(N(C)C)ncnc43)[C@@H]2O)cc1 (stereo not given in full) | 7.14 | 7.86
6 | Cn1cc[nH]c1=S | 2.86 | 2.86
7 | Cc1ccc(Cl)c(Nc2ccccc2C(=O)O)c1Cl | 0 | 10.7
8 | CN1CCN(CCCN2c3ccccc3Sc3ccc(Cl)cc32)CC1 | 31.4 | 7.14
9 | CC1(C)S[C@@H]2C(N3C(=O)[C@@H](c4ccccc4)NC3(C)C)C(=O)N2[C@H]1C(=O)O (stereo not given in full) | 7.14 | 12.9
10 | C=C(C)[C@H]1CC=C(C(=O)O)CC1 | 8.57 | 15
11 | CC(=O)OCC(=O)[C@@]1(O)CCC2C3CCC4=CC(=O)CC[C@]4(C)C3[C@@H](O)C[C@@]21C (stereo not given in full) | 2.85 | 3.58
12 | CC[C@H]1CN2CCc3cc(OC)c(OC)cc3C2C[C@@H]1CC1NCCc2cc(OC)c(OC)cc21 (stereo not given in full) | 0 | 0.715
13 | C/C=C/CC(C)C(O)C1C(=O)NC(CC)C(=O)N(C)CC(=O)N(C)C(CC(C)C)C(=O)NC(C(C)C)C(=O)N(C)C(CC(C)C)C(=O)NC(C)C(=O)NC(C)C(=O)N(C)C(CC(C)C)C(=O)N(C)C(CC(C)C)C(=O)N(C)C(C(C)C)C(=O)N1C (stereo not given) | 2.86 | 1.43
14 | CN1CCC(=C2c3ccccc3Sc3ccccc32)CC1 | 1.43 | 0.715
15 | O=C(O)c1cccnc1 | 17.1 | 6.42
16 | C=C[C@H]1CN2CC[C@H]1C[C@@H]2[C@H](O)c1ccnc2ccc(OC)cc12 | 1.43 | 2.86
17 | CCCCOc1ccc(CC(=O)NO)cc1 | 4.29 | 16.4
18 | COC(=O)[C@H]1[C@H]2C[C@@H]3c4[nH]c5cc(OC)ccc5c4CCN3C[C@H]2C[C@@H](OC(=O)c2cc(OC)c(OC)c(OC)c2)[C@@H]1OC | 1.43 | 3.58
19 | CN(C)c1ccc(C(=C2C=CC(=[N+](C)C)C=C2)c2ccc(N(C)C)cc2)cc1 | 1.43 | 9.29
20 | CC(Oc1ccccc1)C(=O)N[C@@H]1C(=O)N2[C@@H]1SC(C)(C)[C@@H]2C(=O)O (stereo not given in full) | 0 | 2.15
21 | Nc1nc(=S)c2[nH]cnc2[nH]1 | 4.29 | 1.43
22 | C[N+]1(C)C2CC(OC(=O)[C@@H](CO)c3ccccc3)CC1C1OC12 (stereo not given in full) | 4.29 | 2.86

Row | SMILES | suppression of toxicity [1] | suppression of toxicity (PubChem AID 1597)
23 | NC(=O)NC(=O)Cc1ccccc1 | 4.29 | 6.42
24 | N[C@@H](CCC(=O)N[C@@H](CS)C(=O)NCC(=O)O)C(=O)O | 4.29 | 7.86
25 | CCN(CC)CCNC(=O)c1ccc(N)cc1 | 1.43 | 2.86
26 | N[C@H](C(=O)O)[C@@H]1CC(Cl)=NO1 | 0 | 0
27 | O=C(O)c1cc(=O)c2ccccc2o1 | 1.43 | 2.15
28 | CCOC(=O)CCC(=O)O[C@H]1[C@H](O[C@@H]2[C@@H](C)[C@H](O[C@H]3C[C@@](C)(OC)[C@@H](O)[C@H](C)O3)[C@@H](C)C(=O)O[C@H](CC)[C@@](C)(O)[C@H](O)[C@@H](C)C(=O)[C@H](C)C[C@@]2(C)O)O[C@H](C)C[C@@H]1N(C)C | 1.43 | 4.29
29 | CCc1cc(C(N)=S)ccn1 | 1.43 | 5
30 | CC(=O)Nc1ccc(S(=O)(=O)Nc2ccc([N+](=O)[O-])cc2)cc1 | 0 | 0.715
31 | CCC(=O)O[C@H]1[C@H](O[C@@H]2[C@@H](C)[C@H](O[C@H]3C[C@@](C)(OC)[C@@H](O)[C@H](C)O3)[C@@H](C)C(=O)O[C@H](CC)[C@@](C)(O)[C@H](O)[C@@H](C)C(=O)[C@H](C)C[C@@]2(C)O)O[C@H](C)C[C@@H]1N(C)C | 1.43 | 2.15
32 | O=C(O)CN(CCN(CC(=O)O)CC(=O)O)CC(=O)O | 4.29 | 5.71
33 | CCC(=O)c1ccc2c(c1)N(CC(C)N(C)C)c1ccccc1S2 (stereo not given) | 2.86 | 5
34 | C1CCN2C[C@@H]3CC(CN4CCCC[C@@H]34)[C@H]2C1 | 10 | 9.29
35 | NC(=O)c1ccc([N+](=O)[O-])cc1Cl | 10 | 22.9
36 | CCCCCCOc1ccccc1C(N)=O | 10 | 9.29
37 | OCCS | 2.86 | 4.29
38 | O=c1cc(-c2ccccc2)oc2cc(O)c(O)cc12 | 1.43 | 4.29
39 | O=C1C[C@@H](c2ccc(O)cc2)Oc2cc(O)cc(O)c21 | 0 | 5.71
40 | O=C(O)CCC(=O)OC[C@@H](NC(=O)C(Cl)Cl)[C@H](O)c1ccc([N+](=O)[O-])cc1 | 10 | 2.15
41 | CC(=O)Oc1cccc(O)c1 | 2.86 | 5
42 | CC1=C(C(=O)O)N2C(=O)[C@@H](NC(=O)[C@H](N)C3=CCC=CC3)[C@H]2SC1 | 0 | 2.15
43 | CCCCC1C(=O)N(c2ccccc2)N(c2ccc(O)cc2)C1=O (stereo not given) | 0 | 3.57
44 | NC(=O)c1cccc(N)c1 | 1.43 | 2.86

Row | SMILES | suppression of toxicity [1] | suppression of toxicity (PubChem AID 1597)
45 | O=C(O)c1cc(=O)c2c(OCC(O)COc3cccc4oc(C(=O)O)cc(=O)c34)cccc2o1 | 1.43 | 4.29
46 | CNC[C@@H](O)c1ccc(O)c(O)c1 | 14.3 | 8.57
47 | Nc1ccn(C2O[C@H](CO)[C@@H](O)[C@H]2O)c(=O)n1 (stereo not given in full) | 15.7 | 17.1
48 | CN[C@@H]1[C@H](O)[C@H](NC)[C@H]2O[C@@]3(O)C(=O)C[C@@H](C)O[C@H]3OC2[C@H]1O (stereo not given in full) | 0 | 0.725
49 | Cc1ccccc1C(OCCN(C)C)c1ccccc1 (stereo not given) | 0 | 4.29
50 | Cc1cc(/C=C/c2ccc3cc(N(C)C)ccc3[n+]2C)c(C)n1-c1ccccc1 | 4.29 | 5.71
52 | CC(Cc1ccc(O)c(O)c1)C(C)Cc1ccc(O)c(O)c1 (stereo not given) | 0 | 0.715
53 | OC(CCN1CCCCC1)(c1ccccc1)c1ccccc1 | 4.29 | 7.86
54 | CN1CCN(CCC=C2c3ccccc3Sc3ccc(S(=O)(=O)N(C)C)cc32)CC1 | 4.29 | 2.86
55 | CN(C)CCOC(c1ccc(Cl)cc1)c1ccccn1 (stereo not given) | 1.43 | 5.71
56 | CC(=O)NC1SCCC1=O (stereo not given) | 2.86 | 2.86
57 | COC(=O)[C@H](c1ccccc1Cl)N1CCc2sccc2C1 | 8.57 | 11.4
58 | CN(C)CCOC(c1ccccc1)c1ccccc1 | 1.43 | 6.42
59 | CC(=O)C1CCC2C3CC=C4CC(OS(=O)(=O)O)CC[C@]4(C)C3CC[C@]12C (stereo not given in full) | 0 | 0.715
60 | NC(Cc1ccc(F)cc1)C(=O)O (stereo not given) | 1.43 | 2.86
61 | CC(=O)OCC1=C(C(=O)O)N2C(=O)[C@@H](NC(=O)CSc3ccncc3)[C@H]2SC1 | 0 | 5.71
62 | CC12CCC(CC1)C(C)(C)O2 | 4.29 | 6.43
63 | NC[C@H]1O[C@H](O[C@H]2C(O[C@@H]3O[C@H](CO)[C@@H](O)[C@H]3O)[C@@H](O)[C@H](N)C[C@@H]2N)[C@H](N)[C@@H](O)[C@@H]1O (stereo not given in full) | 1.43 | 2.86
64 | CCCCCCCCNC(C)C(O)c1ccc(SC(C)C)cc1 (stereo not given) | 4.29 | 5.71
65 | NCCCC[C@H](N[C@@H](CCc1ccccc1)C(=O)O)C(=O)N1CCC[C@H]1C(=O)O | 0 | 0
66 | NC(=NCCCCCCN=C(N)/N=C(\N)Nc1ccc(Cl)cc1)/N=C(\N)Nc1ccc(Cl)cc1 | 0 | 2.85

One compound at a time (already shown). Values in the order: suppression of toxicity [1]	suppression of toxicity (PubChem AID 1597)
`NC(=NCCCCCCN=C(N)/N=C(\N)Nc1ccc(Cl)cc1)/N=C(\N)Nc1ccc(Cl)cc1` in the list: 0	2.85
`NC(Cc1ccc(F)cc1)C(=O)O` (stereo not given) in the list: 1.43	2.86

Going on with the list.

Row | SMILES | suppression of toxicity [1] | suppression of toxicity (PubChem AID 1597)
67 | NC1(C(=O)O)CCCC1 | 1.43 | 31.4
68 | Cc1cc(=O)n(-c2ccccc2)n1C | 2.86 | 3.57
69 | C#CCN(C)Cc1ccccc1 | 7.14 | 13.6
70 | CC(=O)Oc1c(C)c(C)c2c(c1C)CCC(C)(CCCC(C)CCCC(C)CCCC(C)C)O2 (stereo not given) | 5.71 | 7.86
71 | Nc1cc(-c2ccncc2)c[nH]c1=O | 5.71 | 6.43
72 | CCCCCCCCCCCCCCCCCC(=O)OC(CC(=O)O)C[N+](C)(C)C (stereo not given) | 5.71 | 5
73 | CN(C)CCC(c1ccc(Cl)cc1)c1ccccn1 (stereo not given) | 0 | 1.43
74 | CCCSc1ccc2nc(NC(=O)OC)[nH]c2c1 | 4.29 | 5.71
75 | CC[C@@]1(O)C[C@H](OC2CC(N(C)C)C(OC3CC(O)C(OC4CCC(=O)C(C)O4)C(C)O3)C(C)O2)c2c(cc3c(c2O)C(=O)c2c(O)cccc2C3=O)[C@H]1C(=O)OC (stereo not given in full) | 0 | 1.43
76 | CC(=O)CCCCn1c(=O)c2c(ncn2C)n(C)c1=O | 1.43 | 19.3
77 | Cc1cc(C(C)(C)C)c(O)c(C)c1CC1=NCCN1 | 12.9 | 0
78 | O=c1cc(-c2ccccc2)oc2c(O)c(O)ccc12 | 1.43 | 7.14
79 | OCCN1CCN(CCCN2c3ccccc3Sc3ccc(C(F)(F)F)cc32)CC1 | 2.85 | 0
80 | CC[C@@H](C(=O)[C@@H](C)[C@@H](O)[C@H](C)[C@@H]1O[C@@H]([C@@H](CC)C(=O)O)CC[C@@H]1C)[C@H]1OC2(C=C[C@@H](O)[C@]3(CC[C@@](C)([C@H]4CC[C@](O)(CC)[C@H](C)O4)O3)O2)[C@H](C)C[C@@H]1C (stereo not given in full) | 2.85 | 11.4
81 | CN(C)C(=O)Oc1ccc[n+](C)c1 | 1.43 | 5.71
82 | O=c1cc[nH]c(=S)[nH]1 | 5.75 | 11.5
83 | C[C@@H]1O[C@@H](OC[C@H]2O[C@@H](Oc3c(-c4ccc(O)c(O)c4)oc4cc(O)cc(O)c4c3=O)[C@H](O)[C@@H](O)[C@@H]2O)[C@H](O)[C@H](O)[C@H]1O | 12.9 | 16.4
84 | COc1ccc(/C=C/c2cc(O)cc(O[C@@H]3O[C@H](CO)[C@@H](O)[C@H](O)[C@H]3O)c2)cc1O | 1.43 | 0.715
85 | CO[C@@H]1[C@@H](O[C@@H]2O[C@H](C)[C@@H](O[C@H]3C[C@@](C)(O)[C@H](O)[C@H](C)O3)[C@H](N(C)C)[C@H]2O)[C@@H](CC=O)C[C@@H](C)[C@@H](O[C@H]2CC[C@H](N(C)C)[C@@H](C)O2)/C=C/C=C/C[C@H](C)OC(=O)C[C@H]1O | 10 | 14.3

As a short view, some entries already given:
Row | SMILES | suppression of toxicity [1] | suppression of toxicity (PubChem AID 1597)
79 | OCCN1CCN(CCCN2c3ccccc3Sc3ccc(C(F)(F)F)cc32)CC1 | 2.85 | 0
80 | CC[C@@H](C(=O)[C@@H](C)[C@@H](O)[C@H](C)[C@@H]1O[C@@H]([C@@H](CC)C(=O)O)CC[C@@H]1C)[C@H]1OC2(C=C[C@@H](O)[C@]3(CC[C@@](C)([C@H]4CC[C@](O)(CC)[C@H](C)O4)O3)O2)[C@H](C)C[C@@H]1C (stereo not given in full) | 2.85 | 11.4
81 | CN(C)C(=O)Oc1ccc[n+](C)c1 | 1.43 | 5.71
